Assay results taken from article PMC11455913.

Amino acid sequences for entries named in this document (tags omitted).
UniProt P04406: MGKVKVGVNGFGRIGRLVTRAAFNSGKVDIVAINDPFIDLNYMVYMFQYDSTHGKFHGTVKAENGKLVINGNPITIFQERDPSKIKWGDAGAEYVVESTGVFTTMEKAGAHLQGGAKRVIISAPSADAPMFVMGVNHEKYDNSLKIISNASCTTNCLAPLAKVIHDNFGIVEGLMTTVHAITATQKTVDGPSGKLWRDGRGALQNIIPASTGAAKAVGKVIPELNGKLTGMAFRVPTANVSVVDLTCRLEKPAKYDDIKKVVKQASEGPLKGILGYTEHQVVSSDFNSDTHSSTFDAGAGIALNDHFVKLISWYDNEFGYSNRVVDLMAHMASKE
UniProt P14618: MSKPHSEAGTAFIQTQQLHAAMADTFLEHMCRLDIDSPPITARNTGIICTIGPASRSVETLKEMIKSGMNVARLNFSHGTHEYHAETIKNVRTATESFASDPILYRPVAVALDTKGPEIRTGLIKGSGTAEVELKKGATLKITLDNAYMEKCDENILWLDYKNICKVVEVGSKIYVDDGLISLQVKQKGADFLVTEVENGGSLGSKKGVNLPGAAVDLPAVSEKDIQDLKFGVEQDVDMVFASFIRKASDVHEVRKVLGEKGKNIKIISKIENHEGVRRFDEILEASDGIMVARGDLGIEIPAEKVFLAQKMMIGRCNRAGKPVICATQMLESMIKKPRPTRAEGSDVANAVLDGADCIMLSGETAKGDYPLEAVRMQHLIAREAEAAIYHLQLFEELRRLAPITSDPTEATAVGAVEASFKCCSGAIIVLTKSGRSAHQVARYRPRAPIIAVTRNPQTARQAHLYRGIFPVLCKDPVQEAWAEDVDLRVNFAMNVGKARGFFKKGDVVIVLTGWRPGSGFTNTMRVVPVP

Molecular target: T1, FLAG-tagged CHAC1 (glutathione-specific gamma-glutamylcyclotransferase 1) (human) (UniProt Q9BUX1)
T1 sequence: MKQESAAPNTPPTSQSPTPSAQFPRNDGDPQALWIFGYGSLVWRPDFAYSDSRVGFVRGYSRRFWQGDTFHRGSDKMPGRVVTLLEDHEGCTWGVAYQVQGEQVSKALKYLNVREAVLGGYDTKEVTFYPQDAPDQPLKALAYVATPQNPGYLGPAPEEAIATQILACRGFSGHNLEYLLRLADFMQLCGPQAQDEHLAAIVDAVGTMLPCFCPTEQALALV
Assay: affinity purification with mass spectrometry; anti-FLAG monoclonal antibodies and paramagnetic beads on lysate of CHAC1 OE A549 cells; SDS-PAGE, silver staining, shotgun LC-MS/MS

Substance	binding
GAPDH, endogenous (from UniProt P04406 1-335)	binds
PKM2 (pyruvate kinase M2), endogenous (from UniProt P14618 1-531)	binds

These are yes or no findings as the source states them, for the method shown. Binding seen in cells or lysates may run through a third protein. Here binding means that the protein was enriched with, or labelled near, the bait; the list need not be complete. Sequences can lack the tags named with a protein.
